This assay is described as follows: qHTS Assay to Find Inhibitors of Chronic Active B-Cell Receptor Signaling. Conditions: ABC-DLBCL IkBa-CBG/CBR reporter, luminescence ratio (green luciferase fused to IkBa over red control in TMD8 lymphoma cells), 4 h. In outline:
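Compounds up to 46 uM were incubated four hours with TMD8 cells whose green CBG68 luciferase is fused to IkappaBalpha; red CBR luminescence normalised the signal, and concentration-effect curves were fitted to fusion, red and ratio data.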

Where [1] appears, read: measured here: CBR red luminescence, cell number.
Setting [2] is: measured here: IkBa-CBG green luminescence.

The AC50 is the midpoint of the concentration-response curve, whichever way the signal moves.

Some of the results follow. Shown are side measurements of this screen, not its main read-out; they come without a call. Compounds called inactive in the main read-out are mostly missing here. Potencies come from curve fits of mixed quality, noted in brackets.

As to `CN(c1ccccc1)S(=O)(=O)c1cccc(C(=O)NCc2ccccc2CN2CCCC2)c1`, the half-maximal activity concentration (AC50) under setting [1] was 20.6 µM [falling, single point].
Turning to `CN1CCN(C(=O)CN2C(=O)CC(C)(C)S(=O)(=O)c3ccccc32)CC1`, under setting [1], the AC50 was 2.06 µM [rising, partial curve, poor fit].
As for `C/C=C/Cn1c(Br)nc2c1c(=O)[nH]c(=O)n2C`, the AC50 under setting [1] was 6.51 µM [falling, single point].
With `Cc1c(O)c(S(=O)(=O)c2ccccc2)c(=O)n(-c2ccccc2)c1-c1ccccc1`, under setting [1], the concentration at half-maximal activity (AC50) is 25.9 µM [falling, partial curve, poor fit].
`Cc1csc(SCC(=O)NCCc2ccc(Cl)cc2Cl)n1`: under setting [1], the AC50 is 16.4 µM [falling, partial curve, poor fit].
As to `COc1ccc2c(c1)CC/C2=N\OC(=O)c1cccc(C)c1`, under setting [1], the AC50 was 3.26 µM [rising, partial curve, poor fit].
In the case of `COc1ccc(Cl)cc1N1C(=O)C2CCCN2C1c1sccc1C` (stereo unspecified), under setting [1], the half-maximal activity concentration (AC50) was 25.1 µM [falling, single point].
For the compound `COc1cc(/C=C/C(=O)OCC(=O)NCc2ccco2)ccc1OCC#N`, the AC50 under setting [1] was 5.01 µM [falling, full curve].
Still for that read-out and setting: next, `Cc1ccc(C(=O)NC(=C(Cl)Cl)S(=O)(=O)c2ccccc2)cc1`: 9.2 µM [falling, partial curve]; `C/C(=N/NS(=O)(=O)c1ccc(C)cc1)c1c(O)c2ccccc2oc1=O`: 10 µM [falling, partial curve]; `C=CCNC(=O)CCCOc1ccc(C)cc1`: 4.11 µM [rising, partial curve, poor fit].
Turning to `O=[N+]([O-])c1ccc(S(=O)(=O)N2CCN=C2SCc2cccnc2)cc1`, under setting [1], the AC50 is 2.51 µM [rising, full curve, poor fit].
For the compound `Cc1[nH]n(-c2ccccc2)c(=O)c1/C=N\NC(=O)C1COc2ccccc2O1` (stereo unspecified), the half-maximal activity concentration (AC50) under setting [2] was 0.517 µM [rising, partial curve, poor fit].
Turning to `COCCn1c(=O)[nH]c2cc(C(=O)N3CCN(c4cc(C)ccc4C)CC3)ccc2c1=O`, the AC50 under setting [1] is 4.47 µM [falling, full curve].
Consider `COc1cc(OC)c2c(-c3ccccc3)cc(=O)oc2c1C(CC(=O)N1CCN(c2ccccc2)CC1)c1ccc(N(C)C)cc1` (stereo unspecified), for which the half-maximal activity concentration (AC50) under setting [1] is 35.5 µM [falling, single point].
On the same count and under the same terms, as for `CC(C)c1nnc(NC(=O)c2cccc(NC(=O)C(F)(F)F)c2)s1`, the figure is 35.5 µM [falling, single point].
Regarding `O=C(c1ccc(Cl)c(Cl)c1)N1CCC(=O)N(C(COCc2cccc(Cl)c2)Cc2ccccc2)CC1` (stereo unspecified), under setting [1], the AC50 was 29.1 µM [falling, single point].
For `COc1ccccc1NCC(=O)N/N=C(\C)c1cccs1`, under setting [1], the AC50 was 0.355 µM [falling, full curve, poor fit].
Still for that read-out and setting: as for `Cn1cc(CNC(=O)c2cc(COc3ccc4c(c3)CCCC4)on2)cn1`, the figure is 1.26 µM [rising, partial curve, poor fit].
Same read-out and setting: next, `C/C(CC(=O)Nc1cccnc1)=N\NC(=O)C(=O)NC(C)C`: 35.5 µM [falling, single point]; `Cc1cc(Cl)ccc1OCC(=O)NNC(=O)C1CCN(c2ncnc3sc(C)c(C)c23)CC1`: 29.1 µM [falling, single point].
As to `COc1ccc(C2=CC(c3sccc3C)n3nnnc3N2)cc1` (stereo unspecified), the concentration at half-maximal activity (AC50) under setting [1] was 0.794 µM [falling, full curve, poor fit].
With `O=C(CN1C(=O)S/C(=C\c2cccs2)C1=O)Nc1ccc(O)cc1C(=O)O`, under setting [1], the AC50 is 3.55 µM [falling, partial curve, poor fit].
Same read-out and setting: as for `COc1cccc(/C=C2\SC(=S)N(CCCC(=O)N(CCO)c3ccccc3)C2=O)c1`, the figure is 4.47 µM [falling, partial curve]; as for `CCOC(=O)c1ccc(CNC(=O)c2cc(C(C)(C)C)oc2C)o1`, 18.4 µM [falling, single point].
Turning to `O[C@@H]1[C@@H](O)C=C2CCN3Cc4cc5c(cc4[C@H]1C23)OCO5` (stereo partly specified), the concentration at half-maximal activity (AC50) under setting [1] is 5.8 µM [falling, partial curve].
Turning to `NS(=O)(=O)c1ccc(NC(=S)NC(=O)C2CCCCC2)cc1`, under setting [1], the AC50 was 35.5 µM [rising, single point].
Same read-out and setting: next, `CC(C)(C)NC(=O)CSc1nc2cccnc2n1C1CCCCC1`: 0.447 µM [rising, full curve, poor fit]; `CCOC(=O)C1=C(OCc2ccc(Cl)cc2)C2C=C(C)C=CC2N=C1` (stereo unspecified): 23.1 µM [falling, single point]; `CCN1CCN(c2nc3c(c(=O)[nH]c(=O)n3C)n2CCCSc2ncccn2)CC1`: 0.794 µM [falling, full curve].
The same measure, in the same setting: as for `COc1ccccc1NC(=O)c1cc2cc(Br)ccc2oc1=N`, the figure is 3.16 µM [rising, partial curve, poor fit]; as for `COc1ccc(N=C2SC(CC(=O)Nc3ccc(F)cc3)C(=O)N2Cc2ccco2)cc1` (stereo unspecified), 29.1 µM [rising, single point].
Regarding `Cn1c2ccccc2c2cc(/C=N/NC(=O)c3ccccc3F)ccc21`, the AC50 under setting [1] is 14.1 µM [falling, partial curve].
As for `Cc1ccc2c(C)c(C(=O)N3CCC(O)(c4ccccc4)CC3)oc2c1C`, the half-maximal activity concentration (AC50) under setting [1] was 11.2 µM [rising, partial curve, poor fit].
Turning to `COc1ccc(/C=C\C(=O)NCC(=O)N/N=C/c2ccc(O)cc2O)cc1`, the AC50 under setting [1] was 12.6 µM [falling, single point].
Turning to `Cn1c(=O)cc(OCC(=O)NCc2cccnc2)c2ccccc21`, the half-maximal activity concentration (AC50) under setting [1] was 11.2 µM [rising, partial curve].
For `CCC(=O)Nc1sc(Cc2ccccc2)c(C)c1C(N)=O`, the concentration at half-maximal activity (AC50) under setting [1] was 3.98 µM [falling, full curve].
Take `C=CCn1c(C)csc1=Nc1ccccc1C`: the AC50 under setting [1] is 25.1 µM [rising, partial curve, poor fit].
Take `CCCc1cc(=O)oc2cc(OCC(=O)NCCCN3CCCC3=O)ccc12`: the AC50 under setting [1] is 35.5 µM [rising, single point].
As to `Fc1cccc(/C=N/Nc2ccc3ccccc3n2)c1`, under setting [1], the AC50 is 1.58 µM [falling, partial curve, poor fit].
Regarding `COCCCNC(=O)c1ccc(CS(=O)(=O)c2cccc(C(F)(F)F)c2)o1`, the AC50 under setting [1] was 35.5 µM [rising, single point].
As to `CC(C)(O)c1[nH]c2ccc(C(F)(F)F)cc2c1C(C)(C)O`, the AC50 under setting [1] is 1.12 µM [rising, full curve, poor fit].
As for `Cc1nc2c(C(=O)NCCC(C)C)c[nH]n2c(=O)c1Cc1ccccc1F`, the AC50 under setting [1] was 10 µM [falling, partial curve].
In the case of `CCCNC(=O)COc1coc(CN2CCN(c3ccc(F)cc3)CC2)cc1=O`, under setting [1], the half-maximal activity concentration (AC50) was 4.47 µM [falling, full curve, poor fit].
Regarding `COc1ccc2ccccc2c1/C=N/NC(=S)NCCN1CCOCC1`, under setting [2], the AC50 was 22.4 µM [falling, single point].
As to `COc1ccc(OCC(O)CNS(=O)(=O)c2cccs2)cc1` (stereo unspecified), the half-maximal activity concentration (AC50) under setting [1] is 0.447 µM [falling, full curve, poor fit].
With `CCN1/C(=C(\O)c2ccccc2)C(=O)c2ccccc2S1(=O)=O`, the concentration at half-maximal activity (AC50) under setting [1] is 29.1 µM [falling, single point].
In the case of `N#C/C(=C\c1ccco1)C(=O)NCc1ccccc1`, the concentration at half-maximal activity (AC50) under setting [1] was 0.891 µM [rising, full curve, poor fit].
Consider `O=C(CSc1cc(Cl)ccc1Cl)Nc1ccc(N2CCOCC2)cc1`, for which the AC50 by setting is: under setting [1], 29.1 µM [rising, single point]; under setting [2], 18.4 µM [falling, partial curve, poor fit].
For the compound `O=[N+]([O-])C(=C1SCCS1)C(=C(Cl)Cl)N1CCCCC1`, the AC50 under setting [2] is 35.5 µM [rising, partial curve, poor fit].
`CC(=O)c1cccc(NC(=O)NCCS(C)=O)c1` (stereo unspecified): the AC50 under setting [1] was 14.1 µM [rising, partial curve, poor fit].
Turning to `O=C(Nc1ccc(Cc2ccncc2)cc1)C1CCC(N2C(=O)C3CC=CCC3C2=O)CC1` (stereo unspecified), under setting [1], the concentration at half-maximal activity (AC50) is 18.4 µM [falling, single point].
As for `CC(=O)Nc1cnc(NC(=O)c2cccc(F)c2)cc1C`, the AC50 under setting [1] was 9.2 µM [falling, partial curve, poor fit].
Regarding `COc1ccccc1NC(=O)C1=C(C)Nc2nnnn2C1c1ccccn1` (stereo unspecified), the concentration at half-maximal activity (AC50) under setting [1] was 14.6 µM [falling, single point].
As for `O=C(CCl)N(c1ccc(Cl)cc1)c1c[nH]c2ccccc12`, under setting [1], the AC50 is 7.31 µM [falling, full curve, poor fit].
Turning to `O=C(NC(=S)Nc1ccc(N2CCOCC2)cc1)c1ccco1`, under setting [1], the AC50 was 2.31 µM [rising, full curve].
On to `NS(=O)(=O)c1ccc(NC(=O)/C=C/c2ccco2)cc1`, for which the concentration at half-maximal activity (AC50) under setting [1] was 12.6 µM [falling, single point].
`Cc1ccsc1/C=C/C1=NCCCN1C`: the AC50 was 29.1 µM [rising, single point] under setting [1] and 25.9 µM [falling, partial curve, poor fit] under setting [2].
For `CCc1nnc(NC(=O)C2CCC(CNc3c(N4CCCCC4)c(=O)c3=O)CC2)s1` (stereo unspecified), under setting [1], the AC50 was 0.562 µM [rising, full curve, poor fit].
Take `Cc1ccsc1/C=N/NC(=O)C(=O)NCC(C)C`: the AC50 under setting [1] is 7.94 µM [falling, partial curve].
On to `O=C(CSc1nnc(-c2ccncc2)n1Cc1ccccc1)NC1CCCCC1`, for which, under setting [1], the concentration at half-maximal activity (AC50) is 35.5 µM [falling, single point].
Take `COc1cccc(C(=O)Nc2ccc(-n3nncc3-c3ccccc3)cc2)c1OC`: the AC50 under setting [1] is 35.5 µM [falling, single point].
Turning to `CCCNC(=O)c1cc(-c2ccccc2)c(N2CCCCC2)s1`, the concentration at half-maximal activity (AC50) under setting [1] is 7.08 µM [rising, partial curve, poor fit].
On the same count and under the same terms, as for `Cc1ccc(Sc2ncnc3onc(C)c23)cc1`, the figure is 7.08 µM [falling, partial curve].

Values taken from PubChem BioAssay AID493014 (National Center for Advancing Translational Sciences (NCATS), 2011).
